In PubChem BioAssay AID1259415 (National Center for Advancing Translational Sciences (NCATS), 2018):
The whole screen tested about 410,000 compounds, of which about 18,000 (4.4%) were called active. This list was built around the results that the source calls inconclusive (neither active nor inactive); the mix of calls is not that of the screen. No stated cut-off is given here; in the data, active means activity change below about -60%; inconclusive means no clear call, values can overlap the other calls; inactive means above about -39%.
On the % scale 0 is the no-effect control and ±100 the full control effect.

Assay: qHTS Assay for inhibitors of the human cytomegalovirus (HCMV)
Details: HFF cells, HCMV-luciferase reporter, 72 h; at 57.5 µM; hits give low values
Outline: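 After 16 h attachment at 37C, HFF cells received test compound and HCMV-luciferase (1 PFU/cell); reporter luminescence read 72 h later, data normalized against buffer-only and known inhibitor Salinomycin.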
With `CSc1ccc(CCNC(=O)C2CCCN(c3ncnc4c3nc3n4CCCCC3)C2)cc1` (centres undefined) the activity change, negative = inhibition was inconclusive: -58.3%.
In the case of `CCc1ccc(N(C(=O)CCC(=O)Nc2cc(C)on2)C(C(=O)NC(C)(C)C)c2ccc(OC)cc2)cc1` (centres undefined), the activity change, negative = inhibition is reported as inconclusive: -52.4%.
With `Cc1ccc(NC(=O)CSc2nc(C)c(Cc3ccccc3)c(=O)[nH]2)cc1C` the activity change, negative = inhibition was inconclusive: -43.1%.
In the case of `OC(c1ccc(Cl)cc1)c1ncc(-c2ccc(Oc3ccccc3)cc2)[nH]1` (centres undefined), the activity change, negative = inhibition is reported as inconclusive: -54.9%.
For `Cc1ccc(Cl)cc1N(CC(=O)Nc1cccc(N(C)S(C)(=O)=O)c1)S(C)(=O)=O`, the activity change, negative = inhibition was inactive: -17.1%.
In the case of `COc1cccc(-c2nn(C)c3sc(C(=O)NCc4ccccn4)cc23)c1`, the activity change, negative = inhibition is reported as inactive: 106%.
For `CCC1CCCCN1C(=O)/C=C/c1ccc2c(c1)OCO2` (centres undefined), the activity change, negative = inhibition was inactive: 19%.
For `COc1ccc(F)cc1-c1cc(C(=O)Nc2ccc(NC(C)=O)cc2)[nH]n1`, the activity change, negative = inhibition was inconclusive: -41.1%.
For `Clc1cccc(CSc2nncn3c2cc2sccc23)c1`, the activity change, negative = inhibition was inconclusive: -57.1%.
In the case of `COc1ccc(C(=O)Nc2cc(C)c3c(=O)oc4ccccc4c3n2)cc1`, the activity change, negative = inhibition is reported as inconclusive: -41.3%.
In the case of `CCOc1ccc(OCC)c(NC(=O)CSc2nc3cccnc3n2C)c1`, the activity change, negative = inhibition is reported as active: -62.6%.
In the case of `CCC1CSC(Nc2ccc(C(=O)/C=C/c3ccc(OC)c(OC)c3)cc2)=N1` (centres undefined), the activity change, negative = inhibition is reported as active: -101%.
In the case of `COc1ccc(N2CCN(C(CNC(=O)C(=O)NCCC3=CCCCC3)c3ccco3)CC2)cc1` (centres undefined), the activity change, negative = inhibition is reported as inconclusive: -43.8%.
For `Cc1ccc(-c2cn(CCC(N)=O)c(=O)cn2)cc1`, the activity change, negative = inhibition was inconclusive: -40.6%.
For `COc1ccc(NC(=O)c2ccc3c(c2)OCO3)cc1[N+](=O)[O-]`, the activity change, negative = inhibition was inactive: -14.6%.
For `CCOc1ccc2nc(NC(=O)CS(=O)(=O)c3ccccc3)sc2c1`, the activity change, negative = inhibition was inactive: -10.3%.
In the case of `Cc1ccccc1OCC(=O)N/N=C/c1cccc(Oc2ccc([N+](=O)[O-])cc2[N+](=O)[O-])c1`, the activity change, negative = inhibition is reported as inconclusive: -52.1%.
With `CCCN1C(=O)c2[nH]nc(-c3ccccc3O)c2C1c1ccc(OCc2ccccc2)c(OCC)c1` (centres undefined) the activity change, negative = inhibition was inconclusive: -48.6%.
In the case of `CCOC(=O)c1ccc(-n2ccnc2)c(NC(=O)c2ccc(Cl)cc2)c1`, the activity change, negative = inhibition is reported as inconclusive: -44.5%.
For `Cc1ccc(N=Nc2c(C)[nH]n(C(N)=S)c2=O)cc1C`, the activity change, negative = inhibition was inactive: 85.1%.
With `O=C1CCCc2ccccc2N1Cc1cccc(F)c1` the activity change, negative = inhibition was inconclusive: -46.2%.
For `CCN(CC(=O)Nc1ccc(OC)cc1)C(=O)c1ccc(Cl)c(S(=O)(=O)N2CCCC2)c1`, the activity change, negative = inhibition was inconclusive: -45.1%.
In the case of `Cc1csc(NC(=O)c2cc3c(s2)CCCCC3)n1`, the activity change, negative = inhibition is reported as inconclusive: -47.6%.
For `Fc1ccc(Nc2nc3ccccc3c3nncn23)c(Cl)c1`, the activity change, negative = inhibition was inactive: -12.7%.
With `CCN(C(=O)c1cc2cc3ccc(C)cc3nc2o1)c1ccc(OC)cc1` the activity change, negative = inhibition was inconclusive: -54.4%.
With `Cc1ccc2oc(=O)c3cc(C(=O)Nc4ccc(F)cc4F)sc3c2c1` the activity change, negative = inhibition was inactive: -7.89%.
With `CCC1CCCCN1CCCNC(=O)c1nn(C)c2c1CS(=O)(=O)c1ccccc1-2` (centres undefined) the activity change, negative = inhibition was inconclusive: -57.8%.
For `CCC1CCCCN1CCCNC(=O)CN1C(=O)c2cccnc2Oc2ccc(Cl)cc21` (centres undefined), the activity change, negative = inhibition was inconclusive: 0%.
For `CCC(=O)N1c2ccc(S(=O)(=O)N3CCN(c4ccc([N+](=O)[O-])cc4)CC3)cc2CC1C` (centres undefined), the activity change, negative = inhibition was inconclusive: -52.7%.
For `CCNC(=S)N(CCc1c(C)[nH]c2ccccc12)Cc1cccnc1`, the activity change, negative = inhibition was inactive: -9.2%.
For `COc1ccccc1NC(=O)c1cccc(NC(=O)c2ccco2)c1`, the activity change, negative = inhibition was inconclusive: -51.9%.
For `CC1(C)CC(=O)C2=C(C1)NC1=C(C(=O)c3ccccc31)C2c1ccccc1` (centres undefined), the activity change, negative = inhibition was inconclusive: -49.8%.
For `Cc1c([N+](=O)[O-])c2ccc(O)cc2n1-c1ccccc1`, the activity change, negative = inhibition was active: -67.7%.
With `CNC12CCc3cc(OC)c(OC)c(c31)-c1cc3c(cc1C2)OCO3` (centres undefined) the activity change, negative = inhibition was inconclusive: -58.6%.
In the case of `Cc1cc[n+](-c2nc3ccccc3nc2C(=C=[N-])C#N)cc1`, the activity change, negative = inhibition is reported as inconclusive: -42%.
With `Cc1cccc(N2CCN(CCCNC(=O)C3CCCN(c4ncnc5c4nc4n5CCCCC4)C3)CC2C)c1` (centres undefined) the activity change, negative = inhibition was inconclusive: -44.8%.
For `CCn1cc(CN(C)S(=O)(=O)c2ccc3ccccc3c2)c(C)n1`, the activity change, negative = inhibition was active: -68.4%.
For `NS(=O)(=O)c1ccc(CCNc2cc(=O)n(Cc3ccc(F)cc3)c(=O)[nH]2)cc1`, the activity change, negative = inhibition was inconclusive: -41.8%.
In the case of `O=C(COc1ccccc1)Nc1ccc2[nH]ncc2c1`, the activity change, negative = inhibition is reported as inactive: -32.2%.
In the case of `CSC(=NNC(=O)c1ccc(O)cc1)SC`, the activity change, negative = inhibition is reported as inactive: 24.3%.
In the case of `CCc1ccc(N/C(N)=N/c2nc(CSc3ccccn3)cc(=O)[nH]2)cc1`, the activity change, negative = inhibition is reported as active: -84.6%.
In the case of `Cc1nn(C(C)C(=O)N2CCCC2)c(=O)c2nn(-c3ccccc3)c(C)c12` (centres undefined), the activity change, negative = inhibition is reported as inactive: -27%.
In the case of `Cc1ccc(C)c(Oc2cc(NC(=O)CCCn3nc(C)c([N+](=O)[O-])c3C)cc([N+](=O)[O-])c2)c1`, the activity change, negative = inhibition is reported as active: -87.6%.
In the case of `Cc1c(OC(C)C(=O)N[C@H](C(=O)O)c2ccccc2)ccc2c3c(c(=O)oc12)CCCC3` (some centres undefined), the activity change, negative = inhibition is reported as inactive: 13%.
With `COC(=O)C1=C(C)N(Cc2ccccc2)C(=NCc2ccccc2)N[C@H]1c1cccc(F)c1` the activity change, negative = inhibition was inactive: -25.6%.
For `CC(C(=O)Nc1ccccc1-c1ccccc1)N1CCN(S(=O)(=O)c2ccccc2)CC1` (centres undefined), the activity change, negative = inhibition was inconclusive: -45.3%.
In the case of `Cc1ccc(-n2nnnc2-c2cnc3cc4c(cc3c2C)OCO4)cc1`, the activity change, negative = inhibition is reported as inconclusive: -53.8%.
In the case of `O=C(CCC(=O)N1CCN(S(=O)(=O)c2ccccc2)CC1)c1ccc(Br)cc1`, the activity change, negative = inhibition is reported as inactive: 6.64%.
In the case of `COC(=O)C1(C)CC1(c1ccccc1)c1ccccc1` (centres undefined), the activity change, negative = inhibition is reported as inactive: 13.4%.
With `NC(=O)C1CC(=O)N(c2ccc(OCc3ccc(Cl)cc3)cc2)C1` (centres undefined) the activity change, negative = inhibition was inactive: 64.4%.
For `CCOC(=O)c1ccc(Oc2cn[nH]c2-c2ccc(O)cc2O)cc1`, the activity change, negative = inhibition was inconclusive: -54.7%.
With `CCC(=O)c1ccc(OCC(O)Cn2c(C)nc3ccccc32)cc1` (centres undefined) the activity change, negative = inhibition was active: -61.7%.
In the case of `CN1N=C(c2ccc(F)c(F)c2)CSC1=NCc1ccccc1`, the activity change, negative = inhibition is reported as inconclusive: -58.7%.
With `COc1ccc2[nH]c(C)c(CCNC(=S)Nc3cccc(C)c3)c2c1` the activity change, negative = inhibition was inconclusive: -55.9%.
